# Test results reported in US4677069A, “Clam derived proteinases” (priority 1984, dated 1987).
# For some assays here: The name of at least one read-out is uncertain. For some assays here: At least one structure is not confirmed: it was looked up by name or label, or the drawing left a doubt.
# How the values were obtained:
# PIII = assay: Heavy metal effect on proteolytic activity of PIII; assay type: biochemical, surf clam, Spisula solidissima; settings: Table 11 summary
# Method: (§1) The effect of heavy metals on proteolytic activity was determined by preincubating a mixture of 5 mM heavy metal stock solution (0.3 ml), 0.2M citrate-phosphate buffer at pH 2.8 (1.6 ml) and enzyme solution (0.1 ml) at room temperature for 10 min before the addition of substrate. All stock solutions of metals were made from chloride salts, except that silver was prepared from the nitrate salt.
# PI & II = assay: Heavy metal effect on proteolytic activity of PI & II; assay type: biochemical, surf clam, Spisula solidissima; settings: Table 11 summary
# Method: as §1
# P2.2 enzyme = assay: Stabilization of P2.2 activity with reducing and chelating agents; settings: reagent 0.01 M, 37° C., 10000 µM; for Retention of P2.2 activity, 0 hours: pH 5.0, 0 h; for Retention of P2.2 activity, 1 hour: pH 5.0, 1 h; for Retention of P2.2 activity, 2 hours: pH 5.0, 2 h; for Retention of P2.2 activity, 3 hours: pH 5.0, 3 h; for Retention of P2.2 activity, 20 hours: pH 5.0, 20 h
Structure (SMILES),"Inhibitors, Heavy Metal: PIII (+/-) (PIII)","Inhibitors, Heavy Metal: PI & II (+/-) (PI & II)","Retention of P2.2 activity, 0 hours (P2.2 enzyme)","Retention of P2.2 activity, 1 hour (P2.2 enzyme)","Retention of P2.2 activity, 2 hours (P2.2 enzyme)","Retention of P2.2 activity, 3 hours (P2.2 enzyme)","Retention of P2.2 activity, 20 hours (P2.2 enzyme)"
[Cu+2] [Cu++],+,-,,,,,
O=C1O[C@H]([C@@H](O)CO)C(O)=C1O [Ascorbic acid],,,98.8,101.2,101.8,98.2,62.2
Cl.N[C@@H](CS)C(=O)O [Cysteine-HCl],,,105.5,113.4,118.3,112.8,90.9
OCCS [2-mercaptoethanol],,,95.7,102.5,91.4,94.4,67.3
